# Measurements from the supplement of paper PMC8728848.
# The other results are listed elsewhere or left out.
# B1: FimA (Actinomyces oris) (protein)
# chain: MHHHHHHSSGVDLGTENLYFQSNAETPNYGNIKTDATGSLVIHKHLTGGGKDIGTPTGTAQNADDKGPAVEGVVFTAYPITDINLKDPAGWDTISNLSRTGVPDSACANPAAPTLGAHQFGTPKVSPATTKEGLATITEMPVQAYLVCETTTPGDIVQKAKPFVVTIPHPNTAAGADGQWIYDVNVYPKNEAIDVDKTIQAQKLNGYGVGSLIKFPVESTAPTLDAKSFYKYFQLKDTLDERLSEVTATDVSLEGTPLQPTDYKVETKQQTVTVTFTAEGLKKIKAAPGKKVSAVFQGKVTKAGNGAITNRAQVISDTLYAEQPPTPETPPTDPENPPTSDEVISRWGDLSIKKVDTHQQGQTKAGLQGAQFQLYKAKNAYANTCSNEKEGAPIAINGQTTLTTDAQGAIDIKGLFISDSIDGADRDNQVNAMERCYVLVETKAPAGYVLPAGNGAATPVKVKAGEETTDNVTVENTKQSVPGLPLTG
# How the values were obtained:
# Assay in all cases: glycan array binding signal (z-score within array); higher = stronger binding
# Conditions in all cases: glycan notation: IUPAC condensed, linker removed
# [1] = biological target: Fuc(a1-2)Gal
# Method in brief: (§1)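 From the Consortium for Functional Glycomics database, 3228 arrays were curated, keeping only those whose protein sequence was available. Binding is given as a within-array Z-score averaged across arrays sharing a protein sequence and across linkers. Negative Z-scores can be read as non-binding.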
# [2] = biological target: Fuc(a1-2)Gal(b1-3)GalNAc
# Method in brief: as §1
# [3] = biological target: Fuc(a1-2)Gal(b1-3)GalNAc(a1-3)[Fuc(a1-2)]Gal(b1-4)Glc
# Method in brief: as §1
# [4] = biological target: Fuc(a1-2)Gal(b1-3)GalNAc(a1-3)[Fuc(a1-2)]Gal(b1-4)GlcNAc
# Method in brief: as §1
# [5] = biological target: Fuc(a1-2)Gal(b1-3)GalNAc(b1-3)Gal
# Method in brief: as §1
# [6] = biological target: Fuc(a1-2)Gal(b1-3)GalNAc(b1-3)Gal(a1-4)Gal(b1-4)Glc
# Method in brief: as §1
# [7] = biological target: Fuc(a1-2)Gal(b1-3)GalNAc(b1-4)[Neu5Ac(a2-3)]Gal(b1-4)Glc
# Method in brief: as §1
# [8] = biological target: Fuc(a1-2)Gal(b1-3)GlcNAc
# Method in brief: as §1
# [9] = biological target: Fuc(a1-2)Gal(b1-3)GlcNAc(b1-2)Man(a1-3)[Fuc(a1-2)Gal(b1-3)GlcNAc(b1-2)Man(a1-6)]Man(b1-4)GlcNAc(b1-4)GlcNAc
# Method in brief: as §1
# [10] = biological target: Fuc(a1-2)Gal(b1-3)GlcNAc(b1-2)Man(a1-3)[Fuc(a1-2)Gal(b1-3)GlcNAc(b1-2)Man(a1-6)]Man(b1-4)GlcNAc(b1-4)[Fuc(a1-6)]GlcNAc
# Method in brief: as §1
# [11] = biological target: Fuc(a1-2)Gal(b1-3)GlcNAc(b1-3)Gal(b1-4)Glc
# Method in brief: as §1
# [12] = biological target: Fuc(a1-2)Gal(b1-3)GlcNAc(b1-3)GalNAc
# Method in brief: as §1
# [13] = biological target: Fuc(a1-2)Gal(b1-3)GlcNAc(b1-3)[Fuc(a1-2)Gal(b1-3)GlcNAc(b1-6)]GalNAc
# Method in brief: as §1
# [14] = biological target: Fuc(a1-2)Gal(b1-3)GlcNAc(b1-3)[Gal(b1-4)GlcNAc(b1-6)]Gal(b1-4)Glc
# Method in brief: as §1
# [15] = biological target: Fuc(a1-2)Gal(b1-3)GlcNAc(b1-3)[Neu5Ac(a2-6)Gal(b1-4)GlcNAc(b1-6)]Gal(b1-4)Glc
# Method in brief: as §1
# [16] = biological target: Fuc(a1-2)Gal(b1-3)GlcNAc6S
# Method in brief: as §1
# [17] = biological target: Fuc(a1-2)Gal(b1-3)[Fuc(a1-4)]GlcNAc
# Method in brief: as §1
# [18] = biological target: Fuc(a1-2)Gal(b1-3)[Fuc(a1-4)]GlcNAc(b1-2)Man(a1-3)[Fuc(a1-2)Gal(b1-3)[Fuc(a1-4)]GlcNAc(b1-2)Man(a1-3)]Man(b1-4)GlcNAc(b1-4)GlcNAc
# Method in brief: as §1
# [19] = biological target: Fuc(a1-2)Gal(b1-3)[Fuc(a1-4)]GlcNAc(b1-2)Man(a1-3)[Fuc(a1-2)Gal(b1-3)[Fuc(a1-4)]GlcNAc(b1-2)Man(a1-6)]Man(b1-4)GlcNAc(b1-4)[Fuc(a1-6)]GlcNAc(b1-4)[Fuc(a1-6)]GlcNAc
# Method in brief: as §1
# [20] = biological target: Fuc(a1-2)Gal(b1-3)[Fuc(a1-4)]GlcNAc(b1-3)[Fuc(a1-3)[Gal(b1-4)]GlcNAc(b1-6)]Gal(b1-4)Glc
# Method in brief: as §1
# [21] = biological target: Fuc(a1-2)Gal(b1-3)[Fuc(a1-4)]GlcNAc(b1-3)[Gal(b1-4)GlcNAc(b1-6)]Gal(b1-4)Glc
# Method in brief: as §1
# [22] = biological target: Fuc(a1-2)Gal(b1-4)Glc
# Method in brief: as §1
# [23] = biological target: Fuc(a1-2)Gal(b1-4)Glc6S
# Method in brief: as §1
# [24] = biological target: Fuc(a1-2)Gal(b1-4)GlcNAc
# Method in brief: as §1
# [25] = biological target: Fuc(a1-2)Gal(b1-4)GlcNAc(b1-2)Man
# Method in brief: as §1
# [26] = biological target: Fuc(a1-2)Gal(b1-4)GlcNAc(b1-2)Man(a1-3)[Fuc(a1-2)Gal(b1-4)GlcNAc(b1-2)Man(a1-6)]Man(b1-4)GlcNAc(b1-4)GlcNAc
# Method in brief: as §1
# [27] = biological target: Fuc(a1-2)Gal(b1-4)GlcNAc(b1-2)Man(a1-3)[Fuc(a1-2)Gal(b1-4)GlcNAc(b1-2)Man(a1-6)]Man(b1-4)GlcNAc(b1-4)[Fuc(a1-6)]GlcNAc
# Method in brief: as §1
# [28] = biological target: Fuc(a1-2)Gal(b1-4)GlcNAc(b1-2)[Fuc(a1-2)Gal(b1-4)GlcNAc(b1-4)]Man(a1-3)[Fuc(a1-2)Gal(b1-4)GlcNAc(b1-2)Man(a1-6)]Man(b1-4)GlcNAc(b1-4)GlcNAc
# Method in brief: as §1
# [29] = biological target: Fuc(a1-2)Gal(b1-4)GlcNAc(b1-3)Gal(b1-4)GlcNAc
# Method in brief: as §1
# [30] = biological target: Fuc(a1-2)Gal(b1-4)GlcNAc(b1-3)Gal(b1-4)GlcNAc(b1-2)Man(a1-3)[Fuc(a1-2)Gal(b1-4)GlcNAc(b1-3)Gal(b1-4)GlcNAc(b1-2)Man(a1-6)]Man(b1-4)GlcNAc(b1-4)GlcNAc
# Method in brief: as §1
# [31] = biological target: Fuc(a1-2)Gal(b1-4)GlcNAc(b1-3)Gal(b1-4)GlcNAc(b1-3)Gal(b1-4)GlcNAc
# Method in brief: as §1
# [32] = biological target: Fuc(a1-2)Gal(b1-4)GlcNAc(b1-3)GalNAc
# Method in brief: as §1
# [33] = biological target: Fuc(a1-2)Gal(b1-4)GlcNAc(b1-3)[Fuc(a1-2)Gal(b1-4)GlcNAc(b1-6)]GalNAc
# Method in brief: as §1
# [34] = biological target: Fuc(a1-2)Gal(b1-4)GlcNAc(b1-3)[Fuc(a1-3)[Gal(b1-4)]GlcNAc(b1-6)]Gal(b1-4)Glc
# Method in brief: as §1
# [35] = biological target: Fuc(a1-2)Gal(b1-4)GlcNAc(b1-6)GalNAc
# Method in brief: as §1
# [36] = biological target: Fuc(a1-2)Gal(b1-4)GlcNAc6S
# Method in brief: as §1
# [37] = biological target: Fuc(a1-2)Gal(b1-4)[Fuc(a1-3)]GlcNAc
# Method in brief: as §1
binder,measurement,setting,value
B1,glycan array binding signal (z-score),[1],-0.721
same,glycan array binding signal (z-score),[2],-0.446
same,glycan array binding signal (z-score),[3],-0.743
same,glycan array binding signal (z-score),[4],-0.48
same,glycan array binding signal (z-score),[5],11.8
same,glycan array binding signal (z-score),[6],-0.435
same,glycan array binding signal (z-score),[7],0.297
same,glycan array binding signal (z-score),[8],0.251
same,glycan array binding signal (z-score),[9],-0.109
same,glycan array binding signal (z-score),[10],-0.644
same,glycan array binding signal (z-score),[11],-0.221
same,glycan array binding signal (z-score),[12],-0.927
same,glycan array binding signal (z-score),[13],-0.577
same,glycan array binding signal (z-score),[14],0.524
same,glycan array binding signal (z-score),[15],-0.347
same,glycan array binding signal (z-score),[16],0.156
same,glycan array binding signal (z-score),[17],-0.566
same,glycan array binding signal (z-score),[18],0.211
same,glycan array binding signal (z-score),[19],-0.324
same,glycan array binding signal (z-score),[20],0.008
same,glycan array binding signal (z-score),[21],-0.483
same,glycan array binding signal (z-score),[22],-0.719
same,glycan array binding signal (z-score),[23],0.325
same,glycan array binding signal (z-score),[24],-0.305
same,glycan array binding signal (z-score),[25],0.416
same,glycan array binding signal (z-score),[26],-0.105
same,glycan array binding signal (z-score),[27],-0.587
same,glycan array binding signal (z-score),[28],-0.236
same,glycan array binding signal (z-score),[29],-1.06
same,glycan array binding signal (z-score),[30],-0.394
same,glycan array binding signal (z-score),[31],-0.835
same,glycan array binding signal (z-score),[32],-0.785
same,glycan array binding signal (z-score),[33],-0.288
same,glycan array binding signal (z-score),[34],-0.576
same,glycan array binding signal (z-score),[35],-0.068
same,glycan array binding signal (z-score),[36],-0.627
same,glycan array binding signal (z-score),[37],-0.015

# No new results follow: entries from further up.
binder,measurement,setting,value
B1,glycan array binding signal (z-score),[28],-0.236
same,glycan array binding signal (z-score),[29],-1.06
